Experimental data reported in PubChem BioAssay AID2685 (National Center for Advancing Translational Sciences (NCATS), 2010).
The other results are listed elsewhere or left out. Shown are side measurements of this screen, not its main read-out; they come without a call. Compounds called inactive in the main read-out are mostly missing here. Words in brackets tell the shape of the fitted curve; partial curves, single points and poor fits give uncertain potencies.

Assay: qHTS Assay for Lipid Storage Modulators in Drosophila S3 Cells;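 for cell number change: cells counted by Cell Tracker Red CMTPX staining in the red channel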
Conditions: BODIPY lipid droplet fluorescence, 18-24 h; for cell number change: measured here: cell count max response, cells fed with added oleic acid
How it was run: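 Drosophila S3 cells loaded with oleic acid (400 uM, as added) and compounds at several concentrations; lipid droplets imaged by 488-nm laser-scanning cytometry, 500–530 nm intensity and object ratio to cell channel. Percent activity normalized to 20 uM Triacsin C.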

[1] = measured here: cell number channel AC50, cells fed with added oleic acid
[2] = measured here: lipid fluorescence (Fed channel) AC50, cells fed with added oleic acid

CCOC(=O)c1c(-c2ccccc2)oc2ccc(OCC(=O)NNC(=O)CCC(=O)O)cc12
cell number change: -30.6%
AC50 [1]: 32.6 µM [falling, single point]

COc1ccc(CNC(=O)CCCC2=NS(=O)(=O)c3ccccc3N2)cc1
cell number change: 10.2%

COc1ccc(S(=O)(=O)Nc2ccc3oc(C)c(C(=O)O)c3c2)cc1
cell number change: 6.32%

COc1ccc(CN2CCN(CCc3ccccc3)C(CCO)C2)c(Cl)c1OC (stereo unspecified)
cell number change: 5.09%
AC50 [2]: 0.651 µM [rising, full curve]

O=C(COc1ccccc1)NC(=S)Nc1cccc2cc(O)ccc12
cell number change: -47.3%
AC50 [1]: 29.1 µM [falling, single point]
AC50 [2]: 29.1 µM [falling, single point]

O=C(NCC1CCCCC1)C1CCC(=O)N(CCc2cccc(F)c2)C1 (stereo unspecified)
cell number change: 32.7%
AC50 [1]: 29.1 µM [rising, single point]
AC50 [2]: 0.731 µM [falling, full curve, poor fit]

CCN(CC)c1nc(C)nc2c1sc(=S)n2C
cell number change: -54.5%
AC50 [1]: 29.1 µM [falling, single point]
AC50 [2]: 29.1 µM [falling, single point]

COc1ccc(CCn2c(-c3ccc(Cl)cc3)n[nH]c2=S)cc1OC
cell number change: 24.9%
AC50 [1]: 1.16 µM [rising, full curve, poor fit]

CCOC(=O)c1ccccc1NC(=O)c1nc2nccc(C)n2n1
cell number change: 68.6%
AC50 [1]: 4.61 µM [rising, full curve]

O=C(Cc1cnc2ncnn2c1)N1CCc2c([nH]c3ccccc23)C1c1ccccc1F (stereo unspecified)
AC50 [2]: 0.58 µM [rising, single point]

Cc1nc2ccc(N=NC3=C(O)CC(C)(C)CC3=O)cc2s1
cell number change: -42%
AC50 [1]: 1.46 µM [falling, partial curve]
AC50 [2]: 2.59 µM [rising, full curve]

Cc1ccc2c(c1)N(CC(=O)NC1CCC(C)CC1)C(=O)c1cccnc1O2 (stereo unspecified)
cell number change: -8.65%
AC50 [2]: 5.17 µM [rising, partial curve]

COCCOC(=O)c1[nH]c2c(c1C)C(=O)CC(c1ccc(OC)c(OC)c1)C2 (stereo unspecified)
cell number change: -24.5%
AC50 [2]: 29.1 µM [falling, single point]

COc1ccccc1N(C)S(=O)(=O)c1ccc(C(=O)OCC(=O)NCc2ccco2)cc1
cell number change: -13.8%

CCN(CC(=O)Nc1ccc(OC)c(OC)c1)S(=O)(=O)c1ccc(C)cc1
AC50 [2]: 2.31 µM [rising, partial curve]

COc1ccccc1/C=C\C=N\NC(=O)CCn1nnc2ccccc21
AC50 [1]: 0.517 µM [rising, single point]

COC(=O)c1cc(CNC(=O)c2ccccc2Cl)ccc1OC
cell number change: -7.69%
AC50 [2]: 0.00461 µM [rising, full curve, poor fit]

CCCCC(=O)O[C@H]1CC[C@H]2[C@@H]3CCc4cc(O)ccc4[C@H]3CC[C@]12C
cell number change: -45.1%
AC50 [1]: 18.4 µM [falling, partial curve, poor fit]
AC50 [2]: 32.6 µM [falling, partial curve]

CCOC(=O)Cn1c(C)[n+](CC(=O)c2ccccc2)c2ccccc21
cell number change: -7.46%
AC50 [2]: 4.11 µM [falling, full curve, poor fit]

CNC(=O)c1oc(-c2ccccc2)nc1C
cell number change: -3.49%
AC50 [2]: 32.6 µM [rising, single point]

O=C(N=C1SC2CS(=O)(=O)CC2N1Cc1ccccc1)C1CCCO1 (stereo unspecified)
cell number change: 6.11%
AC50 [1]: 2.31 µM [rising, partial curve]
AC50 [2]: 29.1 µM [rising, partial curve, poor fit]

O=C(/C=C/c1ccc2c(c1)OCO2)NC1CCCC1
cell number change: 21.9%
AC50 [1]: 3.26 µM [rising, partial curve]
AC50 [2]: 29.1 µM [rising, single point]

O=C(NCc1ccc(Cl)cc1)C1CCN(C(=O)Cc2ccccc2)CC1
AC50 [2]: 0.13 µM [falling, full curve, poor fit]

NC(=O)c1cc2ccccc2o/c1=N\NC(=O)c1ccco1
cell number change: 0.127%
AC50 [2]: 3.66 µM [rising, partial curve]

N#C/C(=C\c1ccccc1Cl)C(=O)Nc1ccccn1
AC50 [2]: 23.1 µM [falling, partial curve]

COc1ccc([N+](=O)[O-])cc1NC(=O)CCN1CCN(C)CC1
cell number change: -31.2%
AC50 [2]: 14.6 µM [falling, partial curve, poor fit]

COCCNC(=O)CN(C(=O)c1ccc(N2CCCC2)nc1)c1ccc(F)c(Cl)c1
cell number change: 4.56%
AC50 [2]: 29.1 µM [falling, single point]

CC(/C=C1\SC(=O)N(CC(=O)Nc2ccc(O)cc2)C1=O)=C\c1ccccc1
cell number change: -42.9%
AC50 [1]: 32.6 µM [falling, partial curve, poor fit]
AC50 [2]: 32.6 µM [falling, partial curve, poor fit]

Cc1ccc(C(C)NC(=O)c2c(-c3ccccc3)noc2C)cc1C (stereo unspecified)
cell number change: 31.4%
AC50 [1]: 3.55 µM [rising, partial curve, poor fit]
AC50 [2]: 15.8 µM [rising, single point]

CC(C)(C)c1ccc(C2SCC(=O)N2c2cccc(C(=O)O)c2)cc1 (stereo unspecified)
cell number change: 179%
AC50 [1]: 29.1 µM [rising, single point]
AC50 [2]: 23.1 µM [rising, single point]

COc1ccccc1CCNC(=O)c1c(C)nn(CC(C)C)c1Cl
cell number change: -2.53%
AC50 [2]: 0.651 µM [falling, single point]

Cc1ccc(NC(=O)NC2CC(=O)N(c3ccc4c(c3)OCCO4)C2)cc1 (stereo unspecified)
cell number change: -25%
AC50 [2]: 20.6 µM [falling, single point]

O=C(Cn1cc(Br)ccc1=O)Nc1ccc2c(c1)OCO2
cell number change: 33.1%
AC50 [1]: 6.51 µM [rising, partial curve]
AC50 [2]: 9.2 µM [rising, partial curve]

COc1cccc(/C=N/NC(=O)C[n+]2ccccc2)c1OC
cell number change: 16.5%
AC50 [1]: 4.61 µM [rising, single point]

O=C(O)Cc1ccc(NC(=O)c2cnccn2)cc1
cell number change: -32.3%
AC50 [1]: 32.6 µM [falling, single point]
AC50 [2]: 18.4 µM [falling, partial curve, poor fit]

COC(=O)c1ccc(NC(=O)CN2CCOCC2)cc1
cell number change: -5.43%
AC50 [2]: 29.1 µM [rising, single point]

COC(=O)c1sc(N/N=C/c2ccc(C(C)C)cc2)nc1C
cell number change: 344%
AC50 [1]: 20.6 µM [rising, partial curve]

Cc1cccc(Nc2nc(-c3sc(C)nc3C)cs2)c1
cell number change: -68%
AC50 [1]: 20.6 µM [falling, partial curve]
AC50 [2]: 0.651 µM [rising, single point]

CCCc1nnc(SCC(=O)NC2CC2)n1CC
cell number change: 5.13%

O=C(O)C1C2CCC(O2)C1C(=O)NCc1ccccc1Br (stereo unspecified)
cell number change: -47.8%
AC50 [1]: 13 µM [falling, partial curve, poor fit]

CCOc1ccc(-n2c(SCC(=O)O)nc3sc4c(c3c2=O)CCCC4)cc1
cell number change: 3.85%
AC50 [2]: 0.00411 µM [rising, full curve, poor fit]

Cc1cccc(NC(=O)COc2ccccc2C(=O)NC(C)c2ccccc2)c1 (stereo unspecified)
cell number change: 30.3%
AC50 [1]: 2.06 µM [rising, partial curve, poor fit]
AC50 [2]: 0.731 µM [falling, partial curve, poor fit]

COc1cc(CC2COC(=O)C2(O)Cc2ccc(O)c(OC)c2)ccc1O (stereo unspecified)
cell number change: -46.3%
AC50 [1]: 11.6 µM [falling, partial curve, poor fit]
AC50 [2]: 13 µM [falling, partial curve]

COc1ccc(C(=O)/C=C/Nc2ccc(S(=O)(=O)Nc3cc(OC)nc(OC)n3)cc2)c(OC)c1
AC50 [2]: 6.31 µM [falling, partial curve]

COCc1ccc(C(=O)N2CCCC(C(=O)c3ccc(Cl)cc3C)C2)o1 (stereo unspecified)
cell number change: -13.3%
AC50 [1]: 6.51 µM [falling, single point]

Cc1cccc(NC(=O)CCNS(=O)(=O)c2cccc3nonc23)c1
cell number change: 9.54%
AC50 [1]: 4.61 µM [falling, single point]
AC50 [2]: 6.51 µM [falling, single point]

Cc1onc(-c2ccccc2)c1C(=O)c1c[nH]c(C(=O)NCCCN2CCOCC2)c1
cell number change: -21.8%

COc1ccc(OC(C)c2ccc(C#N)c(=O)[nH]2)cc1 (stereo unspecified)
AC50 [2]: 6.51 µM [falling, partial curve, poor fit]

Cc1cc(C)c(S(=O)(=O)N2CCOC2CNC(=O)C(=O)NCCCn2ccnc2)c(C)c1 (stereo unspecified)
AC50 [1]: 0.58 µM [falling, single point]

Cc1cccc(NC(=O)NCc2cccnc2)c1C
cell number change: -5.2%
AC50 [2]: 0.82 µM [falling, single point]

CC(C)(C)NS(=O)(=O)c1cc2c3c(c1)CCN3C(=O)CC2
cell number change: -2.8%

COC(=O)c1[nH]c2cccc(OC)c2c1NC(=O)CN1CC(C)OC(C)C1 (stereo unspecified)
cell number change: 46.1%
AC50 [1]: 16.4 µM [rising, single point]
AC50 [2]: 0.517 µM [rising, single point]

COc1ccc(S(=O)(=O)N2CCOC23CCN(S(=O)(=O)c2ccc([N+](=O)[O-])cc2)CC3)cc1
cell number change: -7.02%

CCOc1ccc(S(=O)(=O)N2CCc3ccccc3C2)cc1
cell number change: 30.7%
AC50 [1]: 29.1 µM [rising, single point]
AC50 [2]: 0.103 µM [falling, full curve, poor fit]

CCCn1nnnc1NC(=O)COc1ccc(CC)cc1
cell number change: -33.3%
AC50 [1]: 4.11 µM [falling, full curve, poor fit]

COc1ccc(-c2nc3ccc(C)cn3c2NCc2ccccc2)cc1SC1CCCCC1
cell number change: -11.9%
AC50 [1]: 1.64 µM [falling, partial curve]
AC50 [2]: 4.11 µM [falling, partial curve]
